Results from PubChem BioAssay AID1259354 (Paczesny and Yang Labs, IUPUI and University of Michigan, 2018).
About 1,800 (2.3%) of roughly 78,000 compounds were called active. Inconclusive results, whose numbers are uncertain, are shown with a selection of clear calls. Rule as the data show it: active = inhibition above about 30%; inconclusive = mostly about 10% to 28%; inactive = weaker than that. Where a structure was tested more than once in an assay, its records may differ in their call.

Sequences of proteins named here, by UniProt entry; tags and fusion partners are left off. A change or cut given only in a name is not applied to a line headed by its entry.
UniProt Q01638: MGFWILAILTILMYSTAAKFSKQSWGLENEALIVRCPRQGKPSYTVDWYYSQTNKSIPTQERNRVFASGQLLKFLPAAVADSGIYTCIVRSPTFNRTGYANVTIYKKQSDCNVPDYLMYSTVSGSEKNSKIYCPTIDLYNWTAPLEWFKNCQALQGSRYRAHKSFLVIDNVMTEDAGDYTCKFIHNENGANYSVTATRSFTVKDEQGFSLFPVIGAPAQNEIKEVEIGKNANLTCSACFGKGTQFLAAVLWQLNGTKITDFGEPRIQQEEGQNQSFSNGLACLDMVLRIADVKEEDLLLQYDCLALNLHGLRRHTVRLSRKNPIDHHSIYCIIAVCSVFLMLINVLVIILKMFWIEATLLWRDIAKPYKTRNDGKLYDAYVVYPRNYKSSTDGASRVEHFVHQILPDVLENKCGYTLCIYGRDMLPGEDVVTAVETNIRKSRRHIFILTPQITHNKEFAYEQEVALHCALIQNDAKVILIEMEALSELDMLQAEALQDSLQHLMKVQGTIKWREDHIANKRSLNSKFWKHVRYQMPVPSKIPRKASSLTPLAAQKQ

These molecules were tested against Interleukin-1 receptor-like 1 (Homo sapiens) (UniProt Q01638) (assay: blocks human ST2 binding to IL-33, primary screen, biochemical, AlphaLISA (AID 1259354)). Conditions: AlphaLISA ST2-Fc/biotin-IL-33 interaction, 1 h; at 17 µM, active compounds read high.
`COCCOc1nc2ccccc2s1` was tested, and the inhibition was inconclusive: 15%.
For `N/C(Cc1ccc([N+](=O)[O-])cc1)=N/OC(=O)N1c2ccccc2Sc2ccccc21`, the inhibition was inconclusive: 29%.
In the case of `CCOc1cccc(S(=O)(=O)N=C2C=C(C(C)(C)C)C(=O)C(C(C)(C)C)=C2)c1`, the inhibition is reported as “inactive”.
For `Cc1nn(C)c(C)c1-c1ncnn1-c1sc2c(c1C#N)CCCCC2`, the inhibition was inconclusive: 27%.
`Cc1ccsc1CN(C)C(=O)c1ccc(OCC(N)=O)cc1` was tested, and the inhibition was inconclusive: 18%.
With `Cc1ccnc(NC(c2cccc(O)c2)c2ccc3ccc(C)nc3c2O)c1` (stereo not given) the inhibition was inconclusive: 11%.
`CCOC(=O)c1cccnc1NCc1cccnc1N1CCN(C(C)=O)CC1` was tested, and the inhibition was “inactive”.
For `CC(C)C(C(=O)O)N1C(=O)c2cccc([N+](=O)[O-])c2C1=O` (stereo not given), the inhibition was “inactive”.
With `CCOC(=O)C1(Cc2ccccc2)CCCN(Cc2cnc(N3CCOCC3)s2)C1` (stereo not given) the inhibition was “inactive”.
In the case of `C=CCN(Cc1ccc(C)s1)C(=O)c1ccc(-c2nnn(C)n2)cc1`, the inhibition is reported as inconclusive: 10%.
`COC(=O)CCCn1cnc(-c2ccccc2)c1-c1ccco1` was tested, and the inhibition was inconclusive: 11%.
In the case of `COc1ccc2cc3cc(C(=O)NC4CCCCC4)sc3nc2c1`, the inhibition is reported as “inactive”.
In the case of `CC1CCCCN1C1CN(CCOCc2ccccc2)C1` (stereo not given), the inhibition is reported as “inactive”.
`CCc1ccc(CN(C)Cc2snnc2C)nc1` was tested, and the inhibition was inconclusive: 24%.
`Cn1nnc2cc(C(=O)N3CCC(CO)(CCCc4ccccc4)CC3)ccc21` was tested, and the inhibition was inconclusive: 10%.
With `Cc1cc(N2CCC(C)CC2)nc2ccc(NC(=O)CCC(=O)NC(C)C)cc12` the inhibition was inconclusive: 16%.
For `OCCn1c(-c2ccc(I)cc2)csc1=Nc1ccccc1`, the inhibition was active: 42%.
In the case of `O=[N+]([O-])c1ccc(N2CCOCC2)cc1NCc1cccnc1`, the inhibition is reported as inconclusive: 12%.
With `Cc1cccc(Cc2c(C)nc3nc(SCC(=O)NCCC(C)C)nn3c2C)c1` the inhibition was “inactive”.
With `CSc1ccc(CNC(=O)C2CCC(=O)N(CCN3CCOCC3)C2)cc1` (stereo not given) the inhibition was “inactive”.
`Cc1ccc(-n2cc(CNCCc3ccccn3)c(-c3cccc(C)c3)n2)cc1` was tested, and the inhibition was “inactive”.
With `COCCN1C(=O)NC(Cc2ccc(F)cc2)(C2CCN(C(=O)c3ccc(F)cc3)CC2)C1=O` (stereo not given) the inhibition was inconclusive: 25%.
`COc1ccccc1NC(=O)CSc1nnc(Cc2cc(=O)[nH]c(=O)[nH]2)n1-c1ccccc1` was tested, and the inhibition was inconclusive: 24%.
In the case of `O=c1oc2ccccc2cc1-c1nc(-c2cccc(Cl)c2)cs1`, the inhibition is reported as inconclusive: 24%.
With `O=C1C(=O)N(CCCn2ccnc2)C(c2ccco2)C1=C(O)c1ccc(Cl)cc1` (stereo not given) the inhibition was “inactive”.
In the case of `O=C(COc1ccc(Br)cc1Br)Nc1ccc2c(c1)OCO2`, the inhibition is reported as inconclusive: 16%.
In the case of `COc1cc(C2C(C#N)=C(N)Oc3ccc4ccccc4c32)cc(OC)c1OC` (stereo not given), the inhibition is reported as inconclusive: 16%.
In the case of `Brc1ccc(-c2cc3ccccn3c2)cc1`, the inhibition is reported as active: 34%.
In the case of `Cc1cc([N+](=O)[O-])nn1CCCC(=O)Nc1ccc(OC(F)(F)F)cc1`, the inhibition is reported as inconclusive: 15%.
In the case of `CCC(CO)Nc1ncnc2c1cnn2-c1ccc(OC)cc1` (stereo not given), the inhibition is reported as inconclusive: 11%.
In the case of `COc1ccc(C2=C/C(=C3\c4ccccc4-c4ncccc43)C(=O)O2)cc1`, the inhibition is reported as inconclusive: 21%.
`CC(C)c1ccc(OCC(=O)O/N=C(/N)c2ccncc2)c(Br)c1` was tested, and the inhibition was inconclusive: 24%.
`COc1cc(OC)c(NC(=O)c2cnn(-c3ccccc3Cl)c2C2CCNCC2)cc1Cl` was tested, and the inhibition was inconclusive: 18%.
With `CCN(CC)S(=O)(=O)c1ccc2c(c1)CC(C(=O)N1CCN(Cc3ccccc3)CC1)N2C(C)=O` (stereo not given) the inhibition was “inactive”.
In the case of `Cc1ccc2c(C(=O)CN3CCOCC3)c(C)[nH]c2c1`, the inhibition is reported as active: 32%.
`Cc1[nH]cnc1-c1nccn1CCC(c1ccccc1)c1ccco1` (stereo not given) was tested, and the inhibition was “inactive”.
`COc1ccc(C(NC(=O)Cc2ccccc2)NC(=O)Cc2ccccc2)cc1OC` was tested, and the inhibition was inconclusive: 10%.
For `N#Cc1c(N)n(-c2ccc(C(=O)O)cc2)c2nc3ccccc3nc12`, the inhibition was active: 36%.
`O=C(N[C@H]1CO[C@H]2[C@@H]1OC[C@@H]2n1nnnc1Oc1ccc(-n2ccnc2)cc1)c1ccccc1` was tested, and the inhibition was inconclusive: 18%.
With `CCOC(=O)c1c(NC(=O)c2noc3c2CCc2ccccc2-3)sc(C)c1C` the inhibition was “inactive”.
For `CCC(CC)n1c(=O)n(CC(=O)N(C)C)c2cc(C(=O)O)cnc21`, the inhibition was inconclusive: 18%.
With `COc1c(Cl)cc(/C=C2\C(=O)NN(c3ccccc3)C2=O)cc1Cl` the inhibition was inconclusive: 11%.
In the case of `CC(C)Oc1ccc(C(=O)N2CCN=C2SCc2cccnc2)cc1`, the inhibition is reported as “inactive”.
In the case of `O=C(NCCc1nnc2n1CCNCC2)c1cc2ccccc2[nH]1`, the inhibition is reported as inconclusive: 14%.
With `CCc1c(C)c(C#N)c2nc3ccccc3n2c1N1CCOCC1` the inhibition was “inactive”.
In the case of `COC(=O)C(NC(=O)c1c(O)cccc1O)c1cccc(C)c1` (stereo not given), the inhibition is reported as inconclusive: 17%.
For `COc1ccc(C(=O)N2CCN(c3ccc(Cl)cc3[N+](=O)[O-])CC2)cc1Br`, the inhibition was inconclusive: 10%.
For `Cc1ccc(N2CC(NC(=O)c3cccc(Br)c3)CC2=O)cc1` (stereo not given), the inhibition was “inactive”.
With `O=C(Nc1cc2cccc([N+](=O)[O-])c2oc1=O)c1cccs1` the inhibition was inconclusive: 17%.
For `COc1ccc(OC)c2c(C)cc(N3Cc4cnn(CCO)c4C3)nc12`, the inhibition was inconclusive: 24%.
With `Cc1csc2ncc(C(=O)Nc3ccon3)c(=O)n12` the inhibition was active: 97%.
With `COc1ccccc1C1(CC(=O)N2CCC(Oc3cccc(F)c3)CC2)CC(=O)N(C)C1=O` (stereo not given) the inhibition was inconclusive: 13%.
With `Cc1cc(N2CCCCC2)nc(N2CCN(S(=O)(=O)c3cccc(F)c3)CC2)n1` the inhibition was inconclusive: 13%.
In the case of `COc1ccc(OCC(=O)Nc2ccc(Br)cn2)cc1`, the inhibition is reported as “inactive”.
`CC(C)NC(=O)c1cc(-c2ccc(Cl)c(Cl)c2)on1` was tested, and the inhibition was “inactive”.
In the case of `Cc1ccc([N+](=O)[O-])cc1NC(=O)c1cccc2c1C(=O)c1ccccc1-2`, the inhibition is reported as inconclusive: 10%.
For `CCN(CC)C(=O)c1sc2[nH]c(=O)n(-c3ccccc3)c(=O)c2c1C`, the inhibition was “inactive”.
In the case of `O=C(CSc1nnc(Cc2cc(=O)[nH]c(=O)[nH]2)n1-c1ccccc1)Nc1cccc(F)c1`, the inhibition is reported as inconclusive: 10%.
`CCN1CCn2c(C)nc(C(=O)Nc3cnc4n3CCCC4)c2C1=O` was tested, and the inhibition was “inactive”.
`O=[N+]([O-])c1ccc(N2N=C(c3ccc(O)cc3)CC2c2ccc(F)cc2)cc1` (stereo not given) was tested, and the inhibition was inconclusive: 14%.
In the case of `COc1ccc(OC)c(NS(=O)(=O)c2ccc3c(c2)c(=O)n(C)c(=O)n3C)c1`, the inhibition is reported as “inactive”.
With `OCc1nc2ccc(-c3ccc(F)cc3Cl)cc2[nH]1` the inhibition was inconclusive: 10%.
With `Oc1ccc([C@H]2Oc3cc(O)cc(O)c3C[C@@H]2O)cc1` the inhibition was inconclusive: 10%.
In the case of `Cc1nn(CCCC(=O)Nc2sc3c(c2C#N)CCC3)c(C)c1[N+](=O)[O-]`, the inhibition is reported as inconclusive: 15%.
In the case of `COc1ccc(C2=NN(S(=O)(=O)c3ccccc3)C(c3ccc(Br)cc3)C2)cc1` (stereo not given), the inhibition is reported as “inactive”.
With `Cc1cnc(N2CCC(O)(c3ccccc3)CC2)nc1N(C)C` the inhibition was active: 35%.
In the case of `CN(Cc1ccccc1)[C@H]1[C@H](O)[C@H](CO)O[C@@H]1CNC1CCOCC1`, the inhibition is reported as inconclusive: 15%.
`O=[N+]([O-])c1ccccc1CC1CC1(Cl)Cl` (stereo not given) was tested, and the inhibition was inconclusive: 20%.
With `CC(C)(C)c1ccc(Oc2c(C(F)(F)F)oc3cc(O)ccc3c2=O)cc1` the inhibition was inconclusive: 10%.
In the case of `Cc1cccc(NC(=O)c2cc3cc(Br)ccc3oc2=N)c1`, the inhibition is reported as inconclusive: 10%.
`COc1ccc(-n2ncc3c(N4CCN(Cc5ccccc5)CC4)ncnc32)cc1` was tested, and the inhibition was inconclusive: 12%.
In the case of `COc1ccccc1C1C(C#N)=C(SC)NC(=O)C1C#N` (stereo not given), the inhibition is reported as inconclusive: 12%.
In the case of `O=C1N=C(N2CCN(CCO)CC2)S/C1=C\c1ccc(O)cc1`, the inhibition is reported as inconclusive: 18%.
With `O=S(=O)(NCc1ccccc1)N1CCCC1C(F)(F)F` (stereo not given) the inhibition was inconclusive: 27%.
With `COc1ccc(Nc2cc(C)nc(Nc3ccc(NC(=O)CCc4ccccc4)cc3)n2)cc1` the inhibition was inconclusive: 23%.
With `Cc1ccccc1Nc1sc2ccccc2c1[N+](=O)[O-]` the inhibition was inconclusive: 26%.
`Cc1ccccc1CN1C(=O)/C(=C/C(=O)NCCCOC(C)C)Sc2ccccc21` was tested, and the inhibition was inconclusive: 17%.
For `COc1ccc(-c2c(C#N)c(N)nc(OC)c2C#N)cc1`, the inhibition was inconclusive: 11%.
In the case of `Cc1ccc2nc(-c3ccc(N=Cc4cc([N+](=O)[O-])ccc4O)cc3)oc2c1`, the inhibition is reported as inconclusive: 18%.
`Cc1ccc2c(c1)c1c3c(nccn32)CCC1` was tested, and the inhibition was inconclusive: 21%.
`Nc1cc(C(=O)c2ccc(O)c(N)c2)ccc1O` was tested, and the inhibition was inconclusive: 19%.
`Cc1cc(C)cc(N2C(=O)NC3CC2(C)Oc2ccccc23)c1` (stereo not given) was tested, and the inhibition was “inactive”.
`COc1ccc(-c2nnc(NC(=O)c3ccc(S(=O)(=O)N4CCCCC4)cc3)o2)c(OC)c1` was tested, and the inhibition was inconclusive: 13%.
For `NC(=O)c1cccc(CC2CCN(C(=O)Cn3nc4ccccc4n3)C2)c1` (stereo not given), the inhibition was “inactive”.
`O=C(CCCc1ccccc1)Nc1ccnn1C1CCN(C(=O)c2cncs2)CC1` was tested, and the inhibition was inconclusive: 12%.
For `Cc1cc(S(=O)(=O)N2CCN(c3ccc(F)cc3)CC2)ccc1F`, the inhibition was inconclusive: 13%.
For `COCCN(Cc1nccs1)C(=O)c1ccccc1C1CCNC1` (stereo not given), the inhibition was inconclusive: 12%.
`Clc1ccc(-n2ncnc2-c2ccc(Br)cc2)cc1` was tested, and the inhibition was inconclusive: 15%.
In the case of `O=C(Nc1ccccc1O)c1cc(S(=O)(=O)N2CCCCC2)ccc1Br`, the inhibition is reported as “inactive”.
With `O=C(Cc1ncc(-c2ccccc2)cn1)c1ccccc1` the inhibition was inconclusive: 19%.
`CC(C)c1cc(C(=O)NCCc2nnc3n2CCNCC3)on1` was tested, and the inhibition was inconclusive: 11%.
With `O=C(CC1Sc2ccccc2NC1=O)Nc1cccc(Cl)c1` (stereo not given) the inhibition was inconclusive: 18%.
`CNc1cc(C(=O)N(C)CCc2scnc2C)ccn1` was tested, and the inhibition was inconclusive: 13%.
`CCOC(=O)Cc1csc(NC(=O)c2cc(=O)c3ccccc3o2)n1` was tested, and the inhibition was inconclusive: 10%.
With `CCC(=O)Nc1cccc(C(=O)NCCCn2ccc3ccccc32)c1` the inhibition was inconclusive: 18%.
